Source: ChEMBL document CHEMBL3988442, “University of Dundee, Small-Polar-MMV Screening Library” (2021).

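Assay of Toxoplasma gondii numbers, read through their beta-galactosidase reporter with a colour substrate. Tested at 50 µM. Higher reads as fewer parasites (inferred from which compounds were picked for retests). Of about 18,000 compounds tested this way, about 170 (0.94%) reached 50% or more in at least one test.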

Results are given as percent effect.
How 0% and 100% were set is not recorded. Most values in the screen are low, and negative values occur.
This is an unselected part of the compounds tested.

structure | percent effect
CCc1nc(C)cc(N)n1 | -13.11
Cc1cc(NC(=O)NCCN2CCCC(C)C2)n(C)n1 (centres undefined) | -1.265
Cc1ccnn1CC(=O)NCCN | 4.876
c1ccc(C2CCCN2)nc1 (centres undefined) | 4.904
O=C(Cc1cccnc1)Nc1cc(O)cc(F)c1 | 7.573
FC(F)(F)c1cc(C2CCCNC2)[nH]n1 (centres undefined) | 3.645
Cn1ccnc1SCCNC(=O)c1ccc(C#N)cc1 | 0.2451
O=C(NC1CCCOc2ccc(F)cc21)c1c[nH]nn1 (centres undefined) | 17.37
N#Cc1cccc(S(=O)(=O)N2CC(O)(C3CC3)C2)c1 | 10.2
O=C(CCN1CCC2(CCO2)CC1)Nc1cccnc1 | 1.399
CCOC(C)(C)C(=O)NC(CC)Cn1ccnc1 (centres undefined) | 14.84
Nc1ccnn1-c1ccccn1 | -4.085
NC(=O)C1(NC(=O)Nc2cccc(Br)c2)CC1 | 13.46
CC1(N)CCOCC1 | 2.052
CN(C)C(=O)C1CCCN(C(=O)c2cccnc2)C1 (centres undefined) | -8.046
COC(=O)c1cnc(OC)cn1 | 10.7
CC(C)(CNC(=O)CCc1ccsc1)N1CCOCC1 | 6.133
O[C@H]1COC[C@@H]1N1CCCN(CCn2cncn2)CC1 | -3.784
CC(C)CN1C(=O)c2cccn2CC1CN (centres undefined) | -6.6
CN(C)C1CCCN(C(=O)CCCc2cn[nH]c2)CC1 (centres undefined) | 7.534
Cc1cc2n(n1)C(O)CNC2=O (centres undefined) | -0.6432
O=C(c1cc(-c2ccccc2)[nH]n1)N1CCOCC1 | 9.073
CCC(=O)Nc1ccc(N2CCN(CC)CC2)c(C)c1 | -7.12
CC(Cc1cccs1)C(=O)NC(C)(CO)CO (centres undefined) | 0.9346
CC(CN)(CO)CO | 33.29
CNS(=O)(=O)c1ccc(C(=O)NC(C)C#N)cc1 (centres undefined) | -11.58
Cn1cccc1C1COCCN1 (centres undefined) | 8.693
Oc1ccc(-c2nnc[nH]2)cc1 | 18.16
Cc1ccc(C(=O)NCCNc2cnccn2)o1 | -11.88
CS(=O)(=O)N1CCCC(C(=O)Nc2ccccn2)C1 (centres undefined) | 7.101
Cc1cccc(C(=O)N(C)C)n1 | -4.352
NC1CCN(C(=O)c2cnccn2)CC1 | 2.415
CC(C)(C)OC(=O)N[C@@H]1CCCNC1=O | 5.033
O=C1CCCN1CCOc1cccc(C(F)(F)F)n1 | -16.96
CN(CC(N)=O)Cc1cccc(C#N)c1 | -4.421
Cn1cncc1CCO | -5.763
O=C(NCCN1CCS(=O)(=O)CC1)C1=CCCCCC1 | 1.651
N#Cc1ccc(C2NCCS2)cc1 (centres undefined) | 0.4347
Cn1nnnc1SC(C(N)=O)c1ccc(Br)cc1 (centres undefined) | -2.152
Cn1cnnc1CCNC(=O)c1cc(Cl)c(Cl)n1C | 7.877
CCC(C)Oc1cc(C(=O)NCc2ncc[nH]2)ccn1 (centres undefined) | 4.556
CC1CCN(C(=O)NCCS(=O)(=O)C(C)(C)C)C1 (centres undefined) | -3.798
CN[C@@H](CC(C)C)C(=O)NCCCc1csc(N)n1 | 9.109
c1csc(COC2CCNC2)n1 (centres undefined) | -1.749
CS(=O)(=O)N1CCCCC1C(=O)N1CCOCC1 (centres undefined) | -8.461
O=C(NC1CCCSC1)N(CCO)C1CC1 (centres undefined) | 98.6
CC(Sc1ccccc1)C(=O)NCC(=O)N1CCCC1 (centres undefined) | -9.806
Cn1cc(S(=O)(=O)NC(CO)c2ccccc2F)cn1 (centres undefined) | -2.042
COCc1ccc(C(=O)N2CC[C@@H](N)[C@H](O)C2)s1 | -1.522
NCc1cc2c([nH]c1=O)CCC2 | 5.937
O[C@@H]1CCC[C@H]1n1cccn1 | 27.87
CNC(=O)CCN1CCC(c2ccc(OC)cc2)CC1 | -7.211
Cc1cc(NC(=O)NC(C)CN2CCOCC2)no1 (centres undefined) | -20.75
CS(=O)(=O)c1ccc(OCC(=O)c2ccccc2)cc1 | -20.9
Cc1cc(C)cc(C(C)NC(=O)NCC(=O)N(C)C)c1 (centres undefined) | -0.02865
Cc1cc(CN2CCC(Oc3cccnc3)CC2)on1 | -4.832
CC(C)N1CCN(C2CCNCC2)CC1 | -15.07
O=C(Cc1ccsc1)N[C@@H]1CCOC[C@H]1OCCO | 2.303
CS(=O)(=O)N1CCCN(C(=O)c2cccc(Cl)c2)CC1 | -10.48

The first 5 entries again:

structure,percent effect
CCc1nc(C)cc(N)n1,-13.11
Cc1cc(NC(=O)NCCN2CCCC(C)C2)n(C)n1 (centres undefined),-1.265
Cc1ccnn1CC(=O)NCCN,4.876
c1ccc(C2CCCN2)nc1 (centres undefined),4.904
O=C(Cc1cccnc1)Nc1cc(O)cc(F)c1,7.573